Results from the supplement of paper PMC12067093, “Discovery and optimisation of a covalent ligand for TRIM25 and its application to targeted protein ubiquitination” (Chemical Science, 2025).
This is one part of the list.

The chains behind the UniProt entries cited, without tags or fusion partners. Where a name states a change or a piece, a line headed by the entry shows the natural chain unless it says otherwise.
UniProt Q9NPD8: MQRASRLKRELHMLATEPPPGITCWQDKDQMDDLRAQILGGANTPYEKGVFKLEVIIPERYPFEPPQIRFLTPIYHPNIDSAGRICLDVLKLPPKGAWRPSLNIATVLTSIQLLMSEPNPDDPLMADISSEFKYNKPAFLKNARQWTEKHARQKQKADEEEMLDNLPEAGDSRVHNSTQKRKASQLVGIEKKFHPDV
UniProt Q9H832: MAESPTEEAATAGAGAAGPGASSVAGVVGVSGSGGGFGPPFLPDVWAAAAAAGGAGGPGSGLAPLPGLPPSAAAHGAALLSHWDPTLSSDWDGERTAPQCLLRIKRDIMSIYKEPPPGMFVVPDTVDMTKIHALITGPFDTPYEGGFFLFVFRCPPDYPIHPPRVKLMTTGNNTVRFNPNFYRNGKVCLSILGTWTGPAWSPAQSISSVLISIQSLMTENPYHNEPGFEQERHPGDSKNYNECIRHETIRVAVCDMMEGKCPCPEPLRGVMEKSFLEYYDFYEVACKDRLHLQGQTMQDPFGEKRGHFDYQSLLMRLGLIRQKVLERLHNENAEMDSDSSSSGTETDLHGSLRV
UniProt Q16881, whole entry, looked up: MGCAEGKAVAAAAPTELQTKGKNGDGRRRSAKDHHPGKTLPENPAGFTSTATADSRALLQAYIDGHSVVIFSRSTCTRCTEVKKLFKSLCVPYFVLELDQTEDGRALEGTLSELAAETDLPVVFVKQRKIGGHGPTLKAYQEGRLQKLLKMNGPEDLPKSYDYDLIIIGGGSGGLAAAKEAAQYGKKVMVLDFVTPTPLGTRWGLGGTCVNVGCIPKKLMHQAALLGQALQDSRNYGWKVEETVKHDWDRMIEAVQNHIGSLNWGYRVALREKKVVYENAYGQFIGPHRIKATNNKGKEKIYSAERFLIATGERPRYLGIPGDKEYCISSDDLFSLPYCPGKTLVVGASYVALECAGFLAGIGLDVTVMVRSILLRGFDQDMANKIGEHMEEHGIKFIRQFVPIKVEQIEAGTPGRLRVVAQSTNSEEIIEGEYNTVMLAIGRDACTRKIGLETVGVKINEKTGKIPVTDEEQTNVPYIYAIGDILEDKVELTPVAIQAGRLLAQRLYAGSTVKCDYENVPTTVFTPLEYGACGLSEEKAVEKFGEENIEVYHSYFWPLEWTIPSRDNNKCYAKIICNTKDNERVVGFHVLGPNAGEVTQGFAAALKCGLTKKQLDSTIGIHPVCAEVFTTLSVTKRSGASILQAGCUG
UniProt Q13404: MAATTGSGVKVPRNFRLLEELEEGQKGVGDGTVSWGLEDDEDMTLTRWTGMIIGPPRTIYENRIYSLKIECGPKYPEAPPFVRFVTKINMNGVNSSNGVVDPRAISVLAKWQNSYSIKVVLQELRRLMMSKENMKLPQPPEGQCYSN
UniProt Q6ZT12: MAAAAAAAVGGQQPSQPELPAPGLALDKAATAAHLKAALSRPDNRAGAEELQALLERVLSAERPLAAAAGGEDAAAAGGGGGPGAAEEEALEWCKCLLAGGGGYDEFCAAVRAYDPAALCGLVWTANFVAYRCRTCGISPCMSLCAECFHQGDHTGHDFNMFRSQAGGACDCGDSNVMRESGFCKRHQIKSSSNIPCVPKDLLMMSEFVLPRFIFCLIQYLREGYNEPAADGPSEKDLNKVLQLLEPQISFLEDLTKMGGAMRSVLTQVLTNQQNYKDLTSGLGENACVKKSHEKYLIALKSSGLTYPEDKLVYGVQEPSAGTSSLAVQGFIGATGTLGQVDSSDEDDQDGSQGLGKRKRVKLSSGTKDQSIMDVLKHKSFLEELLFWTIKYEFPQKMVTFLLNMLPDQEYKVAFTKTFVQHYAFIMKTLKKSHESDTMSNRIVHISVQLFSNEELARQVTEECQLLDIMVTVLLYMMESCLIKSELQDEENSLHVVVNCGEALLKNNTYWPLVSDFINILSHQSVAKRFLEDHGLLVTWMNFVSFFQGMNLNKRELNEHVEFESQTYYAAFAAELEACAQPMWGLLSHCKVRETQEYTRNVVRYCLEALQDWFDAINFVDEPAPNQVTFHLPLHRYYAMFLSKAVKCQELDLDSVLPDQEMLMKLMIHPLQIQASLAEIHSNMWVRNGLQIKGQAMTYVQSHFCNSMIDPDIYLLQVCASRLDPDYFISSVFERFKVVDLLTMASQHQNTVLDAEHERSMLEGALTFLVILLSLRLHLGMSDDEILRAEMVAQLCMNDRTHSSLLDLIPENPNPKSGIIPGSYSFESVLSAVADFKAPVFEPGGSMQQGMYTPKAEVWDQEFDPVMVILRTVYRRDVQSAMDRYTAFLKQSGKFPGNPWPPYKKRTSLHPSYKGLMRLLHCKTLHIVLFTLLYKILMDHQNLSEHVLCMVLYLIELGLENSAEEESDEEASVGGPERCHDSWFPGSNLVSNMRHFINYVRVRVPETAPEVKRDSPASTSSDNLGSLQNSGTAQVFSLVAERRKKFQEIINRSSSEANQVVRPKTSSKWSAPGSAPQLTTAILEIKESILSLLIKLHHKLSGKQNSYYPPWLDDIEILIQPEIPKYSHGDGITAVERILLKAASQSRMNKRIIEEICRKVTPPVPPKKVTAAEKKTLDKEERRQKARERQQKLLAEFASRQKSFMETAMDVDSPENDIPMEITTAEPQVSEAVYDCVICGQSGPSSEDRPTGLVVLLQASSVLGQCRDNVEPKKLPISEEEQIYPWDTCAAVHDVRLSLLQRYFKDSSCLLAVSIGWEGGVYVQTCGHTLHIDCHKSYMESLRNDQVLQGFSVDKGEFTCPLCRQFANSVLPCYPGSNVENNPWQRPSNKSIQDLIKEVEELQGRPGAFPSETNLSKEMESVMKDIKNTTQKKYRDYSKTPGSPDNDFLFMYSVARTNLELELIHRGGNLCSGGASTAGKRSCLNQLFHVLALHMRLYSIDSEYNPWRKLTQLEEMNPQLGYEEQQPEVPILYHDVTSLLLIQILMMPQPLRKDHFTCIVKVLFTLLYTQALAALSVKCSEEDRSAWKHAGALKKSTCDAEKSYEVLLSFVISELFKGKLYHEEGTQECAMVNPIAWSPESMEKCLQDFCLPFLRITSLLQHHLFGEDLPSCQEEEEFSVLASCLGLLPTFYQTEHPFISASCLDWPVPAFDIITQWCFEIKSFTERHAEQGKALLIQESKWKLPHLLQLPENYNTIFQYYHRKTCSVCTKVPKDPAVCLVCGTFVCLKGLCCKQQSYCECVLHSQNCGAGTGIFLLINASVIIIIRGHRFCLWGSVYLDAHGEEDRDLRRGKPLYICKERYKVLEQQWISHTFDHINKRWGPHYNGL
UniProt P19971: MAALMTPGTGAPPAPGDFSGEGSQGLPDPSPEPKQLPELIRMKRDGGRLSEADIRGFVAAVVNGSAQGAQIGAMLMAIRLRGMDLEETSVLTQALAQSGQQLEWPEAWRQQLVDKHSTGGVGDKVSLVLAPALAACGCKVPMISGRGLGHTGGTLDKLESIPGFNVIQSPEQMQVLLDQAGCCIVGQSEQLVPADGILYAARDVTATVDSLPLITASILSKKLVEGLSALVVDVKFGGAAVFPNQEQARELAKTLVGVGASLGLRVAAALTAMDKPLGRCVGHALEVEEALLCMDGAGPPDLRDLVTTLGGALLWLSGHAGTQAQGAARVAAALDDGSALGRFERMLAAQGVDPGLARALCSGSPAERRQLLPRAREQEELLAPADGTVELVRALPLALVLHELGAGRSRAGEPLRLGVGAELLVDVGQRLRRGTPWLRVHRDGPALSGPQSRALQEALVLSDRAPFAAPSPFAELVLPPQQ
UniProt Q5T6F2: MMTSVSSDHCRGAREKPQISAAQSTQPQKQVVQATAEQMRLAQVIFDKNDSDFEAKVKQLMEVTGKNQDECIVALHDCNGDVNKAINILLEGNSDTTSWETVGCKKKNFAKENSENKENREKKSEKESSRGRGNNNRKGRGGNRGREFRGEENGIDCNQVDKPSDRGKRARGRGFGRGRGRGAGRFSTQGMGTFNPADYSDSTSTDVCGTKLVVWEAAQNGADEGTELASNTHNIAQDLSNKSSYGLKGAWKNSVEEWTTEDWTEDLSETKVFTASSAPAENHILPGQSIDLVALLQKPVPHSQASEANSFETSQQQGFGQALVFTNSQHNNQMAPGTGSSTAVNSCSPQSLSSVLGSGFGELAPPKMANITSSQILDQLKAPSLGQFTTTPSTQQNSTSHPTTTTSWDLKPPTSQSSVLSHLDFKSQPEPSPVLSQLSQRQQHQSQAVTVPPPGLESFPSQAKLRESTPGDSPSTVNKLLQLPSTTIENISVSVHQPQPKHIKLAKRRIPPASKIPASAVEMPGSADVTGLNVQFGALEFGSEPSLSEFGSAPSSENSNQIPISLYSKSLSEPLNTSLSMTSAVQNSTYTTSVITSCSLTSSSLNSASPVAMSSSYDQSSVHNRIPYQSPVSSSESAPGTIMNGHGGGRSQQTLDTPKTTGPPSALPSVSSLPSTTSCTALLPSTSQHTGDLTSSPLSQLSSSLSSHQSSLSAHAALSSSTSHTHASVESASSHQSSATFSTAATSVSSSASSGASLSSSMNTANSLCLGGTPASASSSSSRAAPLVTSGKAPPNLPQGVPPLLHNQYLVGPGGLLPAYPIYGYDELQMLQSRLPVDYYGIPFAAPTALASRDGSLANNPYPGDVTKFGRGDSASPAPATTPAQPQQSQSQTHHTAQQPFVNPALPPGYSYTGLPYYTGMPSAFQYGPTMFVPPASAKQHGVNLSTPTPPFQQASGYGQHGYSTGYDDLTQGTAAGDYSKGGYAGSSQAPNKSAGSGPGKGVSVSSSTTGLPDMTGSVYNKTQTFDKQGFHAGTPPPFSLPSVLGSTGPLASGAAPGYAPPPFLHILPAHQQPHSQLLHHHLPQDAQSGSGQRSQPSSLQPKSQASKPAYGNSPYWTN
UniProt O14933: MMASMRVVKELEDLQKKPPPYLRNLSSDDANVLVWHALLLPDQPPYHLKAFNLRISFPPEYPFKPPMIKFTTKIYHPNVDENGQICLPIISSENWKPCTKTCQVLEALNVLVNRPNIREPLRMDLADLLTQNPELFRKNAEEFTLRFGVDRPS
UniProt Q969M7: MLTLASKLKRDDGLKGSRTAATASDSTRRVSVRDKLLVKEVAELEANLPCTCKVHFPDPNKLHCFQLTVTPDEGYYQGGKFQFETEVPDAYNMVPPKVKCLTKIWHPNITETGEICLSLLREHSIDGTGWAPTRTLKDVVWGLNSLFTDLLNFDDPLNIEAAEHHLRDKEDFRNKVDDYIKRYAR

Compound: Cc1cc(ccc1-c1ccccc1)C(=O)N1CCCN(CC1)C(=O)CCl [compound 10]
Assay: probe-labelled cysteine peptide fold change vs DMSO (competition) (log2 fold change); higher = less target engagement (more negative = stronger competition)
Settings: THP-1, incubation time: 4 h
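Also: competitive profiling in live THP-1 cells: cysteine peptides tagged with an iodoacetamide desthiobiotin (IA-DTB) probe, intensity after compound treatment relative to DMSO-treated cells.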

Row | Target | probe-labelled cysteine peptide fold change (10 µM) | probe-labelled cysteine peptide fold change (50 µM)
1 | UBE2T_Q9NPD8_24_ELHMLATEPPPGITCWQDK (UniProt Q9NPD8) | -0.209 | -0.165
2 | UBASH3B_Q8TF42_135_AHNIFPHITLCQFFMCEDSK (UniProt Q8TF42) | -0.172 | 0.153
3 | UBE2Z_Q9H832_154_CPPDYPIHPPR (UniProt Q9H832) | -0.123 | -0.0363
4 | TXNRD1_Q16881_577_IICNTK (UniProt Q16881) | 0.836 | 0.459
5 | UBA1_P22314_706_SLVLQRPQTWADCVTWACHHWHTQYSNNIR (UniProt P22314) | 0.186 | 0.291
6 | UBA7_P41226_289_SLDTALLQPHVVAQSSQEVHHAHCLHQAFCALHK (UniProt P41226) | -0.332 | -0.156
7 | UBE2V1_Q13404_144_LPQPPEGQCYSN (UniProt Q13404) | -0.4 | -0.214
8 | UBA6_A0AVT1_231_EIFISNITQANPGIVTCLENHPHKLETGQFLTFR | 0.0113 | 0.231
9 | UBR3_Q6ZT12_1289_KLPISEEEQIYPWDTCAAVHDVR (UniProt Q6ZT12) | -0.189 | -0.369
10 | TYMP_P19971_361_ALCSGSPAER (UniProt P19971) | -0.0102 | 0.0667
11 | UBAP2_Q5T6F2_71_NQDECIVALHDCNGDVNK (UniProt Q5T6F2) | 0.0613 | -0.0464
12 | UBA6_A0AVT1_581_CLANLRPLLDSGTMGTK | 0.0392 | -0.0292
13 | UBE2L6_O14933_86+98_IYHPNVDENGQICLPIISSENWKPCTK (UniProt O14933) | -0.606 | -1.39
14 | UBE2F_Q969M7_64_LHCFQLTVTPDEGYYQGGK (UniProt Q969M7) | 0.198 | -0.0621

Given as a markdown table: entries from further up.

| Row | Target | probe-labelled cysteine peptide fold change (10 µM) | probe-labelled cysteine peptide fold change (50 µM) |
| --- | --- | --- | --- |
| 2 | UBASH3B_Q8TF42_135_AHNIFPHITLCQFFMCEDSK (UniProt Q8TF42) | -0.172 | 0.153 |
| 14 | UBE2F_Q969M7_64_LHCFQLTVTPDEGYYQGGK (UniProt Q969M7) | 0.198 | -0.0621 |
